Data: PMC11435625, “In Vitro Hepatic Clearance Evaluations of Per- and Polyfluoroalkyl Substances (PFAS) across Multiple Structural Categories” (Toxics, 2024)

test: Administered equivalent dose (AED) by reverse dosimetry; set-up: species or system human; conditions: reverse dosimetry from in vitro POD and Css
Protocol: IVIVE was performed as previously described to calculate human steady-state concentrations (Css). Briefly, experimental plasma protein binding data presented elsewhere were transformed to fraction unbound in blood using blood-to-plasma partitioning values. Experimental Clint values generated here are used in conjunction with relevant liver scalars to scale up to estimate whole liver clearance. […] Once Css values were established, these were used with the PFAS-specific in vitro POD data to calculate the administered equivalent doses (AEDs) using reverse dosimetry. […] The fifth-percentile AC50 value was used to define the in vitro POD. All relevant inputs, scalars, and calculations are provided in Supplementary Information, as indicated in the results.

| SMILES | AED [mg/kg/day] |
| --- | --- |
| O=C(O)C(F)(F)C(F)(F)C(F)(F)C(F)(F)C(F)(F)C(F)(F)C(F)(F)C(F)(F)C(F)(F)C(F)F | 0.0252 |
| O=C(O)CCC(F)(F)C(F)(F)C(F)(F)C(F)(F)C(F)(F)F | 0.9861 |
| O=S(=O)(O)CCC(F)(F)C(F)(F)C(F)(F)C(F)(F)C(F)(F)C(F)(F)F | 0.8919 |
| O=S(=O)(O)CCC(F)(F)C(F)(F)C(F)(F)C(F)(F)C(F)(F)C(F)(F)C(F)(F)C(F)(F)F | 2.2926 |
| CCNS(=O)(=O)C(F)(F)C(F)(F)C(F)(F)C(F)(F)C(F)(F)C(F)(F)C(F)(F)C(F)(F)F | 4.0220 |
| CNS(=O)(=O)C(F)(F)C(F)(F)C(F)(F)C(F)(F)C(F)(F)C(F)(F)C(F)(F)C(F)(F)F | 3.0589 |
| O=C(Cl)C(F)(F)C(F)(F)C(F)(F)C(F)(F)C(F)(F)C(F)(F)C(F)(F)F | 0.0010 |
| O=S(=O)(Cl)C(F)(F)C(F)(F)C(F)(F)C(F)(F)C(F)(F)C(F)(F)C(F)(F)C(F)(F)F | 0.2584 |
| O=C(O)C(F)(F)OC(F)(F)C(F)(F)OC(F)(F)F | 0.0446 |
| O=C(O)C(F)(F)C(F)(F)C(F)(F)OC(F)(C(F)(F)F)C(F)(F)F | 0.8818 |
| O=C(O)C(F)(F)C(F)(F)C(F)(F)OC(F)(F)F | 2.6816 |
| C[N+](C)(C)CCCNS(=O)(=O)C(F)(F)C(F)(F)C(F)(F)C(F)(F)C(F)(F)C(F)(F)C(F)(F)C(F)(F)F.[I-] | 0.0349 |
| O=S(=O)([O-])C(F)(F)C(F)(F)C(F)(F)C(F)(F)F.[K+] | 0.0343 |
| O=S(=O)([O-])C(F)(F)C(F)(F)C(F)(F)C(F)(F)C(F)(F)C(F)(F)F.[K+] | 0.0194 |
| O=S(=O)([O-])C(F)(F)C(F)(F)C(F)(F)C(F)(F)C(F)(F)C(F)(F)C(F)(F)C(F)(F)F.[K+] | 0.0959 |
| O=S(=O)(OCC(F)(F)F)C(F)(F)C(F)(F)C(F)(F)C(F)(F)F [2,2,2-Trifluoroethyl perfluorobutanesulfonate] | 0.0541 |
| O=P(O)(O)CCC(F)(F)C(F)(F)C(F)(F)C(F)(F)C(F)(F)C(F)(F)F [2-(Perfluorohexyl)ethylphosphonic acid] | 0.0793 |
| O=C(O)CCC(F)(F)C(F)(F)C(F)(F)C(F)(F)C(F)(F)C(F)(F)F [6:3 FTCA, 6:3 Fluorotelomer carboxylic acid] | 0.1829 |
| O=C(O)CCC(F)(F)C(F)(F)C(F)(F)C(F)(F)C(F)(F)C(F)(F)C(F)(F)F [7:3 FTCA, 3-Perfluoroheptylpropanoic acid] | 0.1923 |
| O=C(O)C(F)(F)C(F)(F)C(F)(F)C(F)(F)C(F)(F)C(F)(F)C(F)F [8H-Perfluorooctanoic acid (8H-PFOA)] | 0.0365 |
| O=C(O)C(F)(F)C(F)(F)C(F)(F)C(F)(F)C(F)(F)C(F)(F)C(F)(F)C(F)F [9-H-Perfluorononanoic acid (9H-PFNA)] | 0.0041 |

| SMILES | AED [mg/kg/day] |
| --- | --- |
| N.O=C(O)C(F)(F)C(F)(F)C(F)(F)C(F)(F)C(F)(F)C(F)(F)C(F)(F)F [Ammonium perfluorooctanoate (NH4PFOA)] | 0.0724 |
| O=S(=O)(O)C(F)(F)C(F)(F)OC(F)(F)C(F)(F)F [Perfluoro(2-ethoxyethane)sulfonic acid] | 0.4229 |
| O=C(O)C(F)(F)OC(F)(F)C(F)(F)OC(F)(F)C(F)(F)OC(F)(F)F [Perfluoro-3,6,9-trioxadecanoic acid] | 0.0033 |
| O=C(O)C(F)(F)OC(F)(F)C(F)(F)OC(F)(F)C(F)(F)C(F)(F)C(F)(F)F [Perfluoro-3,6-dioxadecanoic acid] | 0.0062 |
| O=S(=O)(O)C(F)(F)C(F)(F)C(F)(F)C(F)(F)F [Perfluorobutanesulfonic acid (PFBS)] | 0.8295 |
| O=C(O)C(F)(F)C(F)(F)C(F)(F)F [Perfluorobutanoic acid (PFBA)] | 0.1034 |
| O=C(O)C(F)(F)C(F)(F)C(F)(F)C(F)(F)C(F)(F)C(F)(F)C(F)(F)C(F)(F)C(F)(F)F [Perfluorodecanoic acid (PFDA)] | 0.0626 |
| O=S(=O)(O)C(F)(F)C(F)(F)C(F)(F)C(F)(F)C(F)(F)C(F)(F)C(F)(F)F [Perfluoroheptanesulfonic acid (PFHpS)] | 0.0202 |
| O=C(O)C(F)(F)C(F)(F)C(F)(F)C(F)(F)C(F)(F)C(F)(F)F [Perfluoroheptanoic acid (PFHpA)] | 0.0100 |
| O=C(Cl)C(F)(F)C(F)(F)C(F)(F)C(F)(F)C(F)(F)C(F)(F)F [Perfluoroheptanoyl chloride (PFHpA-Cl)] | 0.0179 |
| NS(=O)(=O)C(F)(F)C(F)(F)C(F)(F)C(F)(F)C(F)(F)C(F)(F)F [Perfluorohexanesulfonamide (PFHxSA)] | 0.0048 |
| O=S(=O)(O)C(F)(F)C(F)(F)C(F)(F)C(F)(F)C(F)(F)C(F)(F)F [Perfluorohexanesulfonic acid (PFHxS)] | 0.0334 |
| O=C(O)C(F)(F)C(F)(F)C(F)(F)C(F)(F)C(F)(F)F [Perfluorohexanoic acid (PFHxA)] | 0.0801 |
| O=C(O)C(F)(F)C(F)(F)C(F)(F)C(F)(F)C(F)(F)C(F)(F)C(F)(F)C(F)(F)F [Perfluorononanoic acid (PFNA)] | 0.0453 |
| NS(=O)(=O)C(F)(F)C(F)(F)C(F)(F)C(F)(F)C(F)(F)C(F)(F)C(F)(F)C(F)(F)F [Perfluorooctane sulfonamide (PFOSA)] | 2.1470 |
| O=S(=O)(O)C(F)(F)C(F)(F)C(F)(F)C(F)(F)C(F)(F)C(F)(F)C(F)(F)C(F)(F)F [Perfluorooctane sulfonate (PFOS)] | 0.0814 |
| O=C(O)C(F)(F)C(F)(F)C(F)(F)C(F)(F)C(F)(F)C(F)(F)C(F)(F)F [Perfluorooctanoic acid (PFOA)] | 0.0138 |
| O=C(O)C(F)(F)C(F)(F)C(F)(F)C(F)(F)C(F)(F)C(F)(F)C(F)(F)C(F)(F)C(F)(F)C(F)(F)C(F)(F)C(F)(F)C(F)(F)F [Perfluorotetradecanoic acid (PFTeA)] | 0.3694 |
| O=C(O)C(F)(F)C(F)(F)C(F)(F)C(F)(F)C(F)(F)C(F)(F)C(F)(F)C(F)(F)C(F)(F)C(F)(F)C(F)(F)C(F)(F)F [Perfluorotridecanoic acid] | 0.1545 |
| O=C(O)C(F)(F)C(F)(F)C(F)(F)C(F)(F)C(F)(F)C(F)(F)C(F)(F)C(F)(F)C(F)(F)C(F)(F)F [Perfluoroundecanoic acid (PFUnDA)] | 0.0625 |
| O=S(=O)([O-])C(F)(F)C(F)(F)C(F)(F)C(F)(F)C(F)(F)C(F)(F)C(F)(F)C(F)(F)C(F)(F)C(F)(F)F.[Na+] [Sodium perfluorodecanesulfonate (NaPFDS)] | 0.3936 |
